From publication PMC5986199

Key:
[1] = target: α-NAC subunit of C. elegans NAC (C. elegans); experiment: cross-linking; BS3 (d0/d4) at 20- or 50-fold molar excess, 20 uM NAC alone or + 20 uM substrate, 10 mM sodium phosphate pH 7.0, room temperature 1 h; SDS-PAGE, in-gel tryptic digest, LC-MS/MS; both purified
[2] = target: α-NAC subunit lacking the UBA domain (C. elegans); experiment: as above
[3] = target: α-NAC subunit of C. elegans NAC (C. elegans); experiment: native MS; NAC heterodimer alone, 10 uM in 100 mM ammonium acetate pH 6.9, nano-ESI, positive mode; both purified
[4] = target: α-NAC subunit lacking the UBA domain (C. elegans); experiment: as above
[5] = target: α-NAC subunit of C. elegans NAC (C. elegans); experiment: native gel or EMSA; NAC heterodimer alone; 10% native PAGE, Tris/glycine pH 8.5, Coomassie Blue; both purified
[6] = target: α-NAC subunit lacking the UBA domain (C. elegans); experiment: as above

Measured: binding

B1: β-NAC subunit of C. elegans NAC (protein, UniProt Q18885 1-161)
chain: MDSKAIAERIKKLQAQQEHVRIGGKGTPRRKKKVIHKTAAADDKKLQSNLKKLSVTNIPGIEEVNMIKDDGTVIHFNNPKVQTSVPANTFSVTGSADNKQITEMLPGILNQLGPESLTHLKKLANNVTKLGPDGKGEDEDVPELVGDFDAASKNETKADEQ
binds: all assays above

Results are given in words; binding and its absence hold for the method and conditions named. A result given as binding can be weak or reduced; the word gives no strength.
